From the supplement of paper PMC7858590 come the findings set out here.

± gives the standard deviation of the averaged measurements. In all, about 3,800 compounds were measured (“cell shape (eccentricity) Z-score vs DMSO control”: median about 1.1, lowest 2% from about -4.7 on). The list shows a part of the results.

The experiment relates to human monocyte-derived macrophages (M0). The experiment is described as follows: cell shape (eccentricity) Z-score vs DMSO control; higher = more elongated, M2-like morphology. As to conditions: 20 µM; 24 h; macrophage state: M0 (M-CSF).
As to `C[C@@H]1O[C@@H](O[C@@H]2[C@@H](O)[C@H](OC(=O)[C@]34CCC(C)(C)CC3C3=CCC5[C@@]6(C)CC[C@H](OC7OC(CO)C(OC8OCC(O)C(O)C8O)C(O)C7O)C(C)(C)C6CC[C@@]5(C)[C@]3(C)CC4O)O[C@H]2CO)[C@H](O)[C@H](O)[C@H]1O[C@H]1OC[C@](O)(CO)[C@H]1O` (some centres not stated), the “cell shape (Z-score)” value is -11.6.
In the case of `O=C(O)CCCCC1SCC2NC(=O)NC21` (configuration not stated) it was 0.251.
The value for `COc1ccc(C2OCC3C(c4cc(OC)c5c(c4)OCO5)OCC23)cc1OC` (configuration not stated) was -1.14.
As for `O=C(O)c1ccc(-c2ccc3cc(C45CC6CC(CC(C6)C4)C5)c(O)cc3c2)cc1`, the “cell shape (Z-score)” value stood at 4.68.
Take `CN1CCCC(n2nc(Cc3ccc(Cl)cc3)c3ccccc3c2=O)CC1` (configuration not stated): the “cell shape (Z-score)” value was determined as 1.51.
For `Fc1ccc(CNc2ncnc3ccc(F)cc23)cc1`, the “cell shape (Z-score)” value came out at 1.17.
In the case of `CS(=O)(=O)c1cccc(CNc2nc(Nc3ccc4c(c3)CCC(=O)N4)ncc2C(F)(F)F)c1` it was 23.1; in that of `C#C[C@]1(O)CCC2C3CCC4=CC(=O)CC[C@@H]4C3CC[C@@]21CC` (some centres not stated), 0.993.
In the case of `CC1(C)CC=C(c2cnc3ccccc3c2)c2cc(C(=O)Nc3ccc(C(=O)O)cc3)ccc21` it was 1.82; in that of `COc1ccc2c(=O)c(OC)c(-c3ccccc3)oc2c1`, 3.19; in that of `C#C[C@]1(OC(C)=O)CCC2C3CCC4=CC(=O)CC[C@@H]4C3CC[C@@]21C` (some centres not stated), 0.116.
As to `Cc1[nH]c(=O)c(C#N)cc1-c1ccc2nccn2c1`, the “cell shape (Z-score)” value was found to be 0.771.
The value for `C=CCc1ccc(O[C@@H]2O[C@H](CO[C@@H]3O[C@@H](C)[C@H](O)[C@@H](O)[C@H]3O)[C@@H](O)[C@H](O)[C@H]2O)c(O)c1` was 0.234.
Regarding `COc1ccc2[nH]c(S)nc2c1`, the “cell shape (Z-score)” value was found to be 5.21.
In the case of `CCCCOc1ccc(CC(=O)NO)cc1` it was 2.83; in that of `CCN(CC)CC1CCN(c2ncc3ncnc(Nc4ccc(F)c(Cl)c4)c3n2)CC1`, 1.38; in that of `Oc1c(Cl)cc(Cl)cc1Sc1cc(Cl)cc(Cl)c1O`, -0.889.
The value for `O=C(CCCN1CC=C(n2c(=O)[nH]c3ccccc32)CC1)c1ccc(F)cc1` was -0.756; that for `C[C@]12CCC3c4ccc(OS(=O)(=O)O)cc4CCC3C1CC[C@H]2O` (some centres not stated) was 4.98; that for `CC(=O)O[C@H]1C[C@@]2(C)[C@@H](C[C@@H](O)[C@H]3[C@@]4(C)CC[C@@H](O)[C@@H](C)C4CC[C@@]32C)C1=C(CCC=C(C)C)C(=O)O` (some centres not stated) was 1.74.
With `CCC(C)(C)C(=O)OC1CC(C)C=C2C=CC(C)C(CCC3CC(O)CC(=O)O3)C21` (configuration not stated), the “cell shape (Z-score)” value amounted to 0.172.
Consider `CC(=O)OCC(=O)[C@@]1(O)[C@@H](C)CC2C3CCC4=CC(=O)C=C[C@]4(C)[C@@]3(F)[C@@H](O)C[C@@]21C` (some centres not stated), for which the “cell shape (Z-score)” value is -1.75.
The value for `COc1ccnc(CS(=O)c2nc3cc(OC(F)F)ccc3[nH]2)c1OC` (configuration not stated) was -1.46.
The value for `O=C(/C=C/c1ccccc1)CC(O)CCc1ccccc1` (configuration not stated) was -0.2; that for `CCCCCCCCC=CCCCCCCCC(=O)NCc1ccc(O)c(OC)c1` was -0.105; that for `COc1cc2c(cc1OC)-c1c(oc3cc(O)cc(O)c3c1=O)CO2` was 4.24.
`C[C@@H]1CC[C@]2(C(=O)O)CC[C@]3(C)C(=CCC4[C@@]5(C)C[C@@H](O)[C@H](O)[C@@](C)(CO)C5CC[C@]43C)C2[C@H]1C` (some centres not stated): the “cell shape (Z-score)” value was determined as 2.25.
The value for `C[C@@H]1C(=O)O[C@H](C)[C@H]1C[C@@H](O)[C@](C)(O)[C@H]1CC[C@@]2(O)C3=CC(=O)[C@@H]4C[C@@H](O)[C@@H](O)C[C@]4(C)C3CC[C@]12C` (some centres not stated) was 1.12; that for `CN(C)CCC(c1ccccc1)c1ccccn1` (configuration not stated) was 0.207; that for `O=C(O)CCc1nc2ccccc2[nH]1` was -1.47.
The value for `CCOC(=O)C(=O)c1csc(NC=O)n1` was -1.72; that for `CC(=O)OCC(=O)[C@@]1(O)CCC2C3CCC4=CC(=O)CC[C@]4(C)C3[C@@H](O)C[C@@]21C` (some centres not stated) was 0.315.
In the case of `CCN(CC)C(=O)N1CCN(C)CC1` it was 2.76.
Turning to `COc1ccc(S(=O)(=O)N(C(C)=O)c2ccccc2/C=C/c2cc[n+]([O-])cc2)cc1`, the “cell shape (Z-score)” value was -4.1.
In the case of `C=C1CC[C@H]2[C@@](C)(CCC(O)[C@@]2(C)CO)[C@@H]1CCC1=CCOC1=O` (some centres not stated) it was 3.19.
The value for `CC1(C)CCC[C@]2(C)C1CC=C(CO)[C@H]2CC/C(=C/CO)CO` (some centres not stated) was 2.48 ± 1.6; that for `Cc1c(C)n(Cc2ccccc2)c2ccc(C(=O)OCCN(C)C)cc12` was -2.89.
The value for `CO[C@H]1/C=C/O[C@@]2(C)Oc3c(C)c(O)c4c(O)c(c(/C=N/N5CCN(C6CCCC6)CC5)c(O)c4c3C2=O)NC(=O)/C(C)=C\C=C\[C@H](C)[C@H](O)[C@@H](C)[C@@H](O)[C@@H](C)[C@H](OC(C)=O)[C@@H]1C` was -1.4.
For the molecule `CCN(CCCc1ccccc1)CCCc1ccccc1`, the “cell shape (Z-score)” value is -3.44.
The value for `Cc1cc(CS(=O)(=O)c2ccccc2)cc(OCc2ccc(CN3CCC[C@@H]3CO)cc2)c1` was 1.66.
With `CC1=C2C[C@@]3(C)[C@@H](CCC[C@@H]3C)C[C@@]2(O)OC1=O`, the “cell shape (Z-score)” value is -3.39.
In the case of `Cc1cccc(CN2CCN(C(c3ccccc3)c3ccc(Cl)cc3)CC2)c1` (configuration not stated) it was -2.42; in that of `C[C@@H](O)CNC(C)(C)CC(=O)N[C@@H]1CCc2ccccc2N(Cc2ccc(-c3ccccc3-c3nn[nH]n3)cc2)C1=O`, 1.86; in that of `Clc1ccccc1C(c1ccccc1)(c1ccccc1)n1ccnc1`, 2.32.
The value for `COc1cc(O)cc2occ(-c3ccc(O)cc3)c(=O)c12` was 2.08; that for `Clc1ccc(COC(Cn2ccnc2)c2ccc(Cl)cc2Cl)cc1` (configuration not stated) was -0.401; that for `N=C(N)c1ccc(OCCCCCOc2ccc(C(=N)N)cc2)cc1` was 1.62.
In the case of `CCC1C(=O)O[C@]23C=C[C@@H]4C(C(=O)O)=CO[C@H](OC12)[C@@H]43` (some centres not stated) it was -2.12.
With `O=C(CCCCCCCCc1ccccc1)c1c(O)cc(O)cc1O`, the “cell shape (Z-score)” value was determined as 1.39.
The value for `COC1(C2=NCCN2)COc2ccccc2O1` (configuration not stated) was 3.52; that for `c1ccc2nc(C3=NCCN3)cnc2c1` was 1.3.
For `CCCCCC1C(=O)O/C(=C\C(=O)O)C1=O` (configuration not stated), the “cell shape (Z-score)” value was -1.15.
In the case of `CCCC(C(=O)OCCN(CC)CC)(c1ccccc1)c1ccccc1`, the “cell shape (Z-score)” value was determined as 0.759.
The value for `Cc1cc(C(C)(C)C)c(O)c(C)c1CC1=NCCN1` was 2.32.
The value for `CN1CCC[C@H]1c1cccnc1` was 1.14; that for `CC1=C(CCC2=CC(=O)OC2O)[C@@]2(C)CCC[C@]3(C)C(=O)OC(C1=O)[C@@H]32` (some centres not stated) was -2.5; that for `O=c1cc(-c2cc(O)c(O)c(O)c2)oc2cc(O)cc(O)c12` was -3.46.
In the case of `Cc1cccc(C)c1NC(=O)C1CCCCN1C` (configuration not stated) it was 2.41; in that of `O=C1c2c(O)cc(O)cc2OC(c2ccc(O)cc2)C1C1C(=O)c2c(O)cc(O)cc2OC1c1ccc(O)cc1` (configuration not stated), 0.822 ± 0.49.
For `CC1(C)S[C@@H]2[C@H](NC(=O)COc3ccccc3)C(=O)N2[C@H]1C(=O)O`, the “cell shape (Z-score)” value is -0.712.
The value for `CC1=CCC2C(C)(C)CCC[C@]2(C)[C@@]12CC[C@](C)(CC(=O)O)O2` (some centres not stated) was 0.656.
In the case of `C[C@@H]1CC2C3C[C@H](F)C4=CC(=O)C=C[C@]4(C)[C@@]3(F)[C@@H](O)C[C@]2(C)[C@@]1(O)C(=O)COC(=O)C(C)(C)C` (some centres not stated) it was -1.77; in that of `COc1ccc(C(=O)O[C@H]2CC(C)=CCC3(C)CC[C@@](O)(C(C)C)[C@H]23)cc1` (some centres not stated), -0.32; in that of `C=CCN1CCc2cc(O)c(O)cc2C(c2ccccc2)C1` (configuration not stated), 1.34.
In the case of `CC(=O)OCC(=O)[C@@]1(O)CCC2C3C[C@H](C)C4=CC(=O)C=CC4(C)C3[C@@H](O)CC21C` (some centres not stated) it was -2.52; in that of `CC(C)c1c(O)ccc2c1CCC1C(C)(C)CCC[C@]21C` (some centres not stated), -0.545; in that of `CNC1(C)C2CCC(C2)C1(C)C` (configuration not stated), 0.826.
In the case of `COc1cc(/C=C/c2ccc(OC)c(OC)c2)c(CC=C(C)C)c(OC)c1`, the “cell shape (Z-score)” value was 2.54.
Turning to `CC(C)OC(=O)C1=CN(C(=O)c2ccc(F)c(F)c2)CC(C)(C)c2c1[nH]c1ccccc21`, the “cell shape (Z-score)” value turned out to be 2.25.
In the case of `COc1cc(OC)c2c(=O)c(OC)c(-c3ccccc3)oc2c1` it was 1.4; in that of `CC(=O)O[C@@H]1[C@@H](OC(=O)/C=C/c2ccccc2)[C@@H](OC(C)=O)[C@H](O[C@H]2[C@@H]3C=CO[C@@H](O[C@@H]4O[C@H](CO)[C@@H](O)[C@H](O)[C@H]4O)[C@@H]3[C@@]3(CO)O[C@@H]23)O[C@H]1C`, 0.351; in that of `CN1CCN2c3ncccc3Cc3ccccc3C2C1` (configuration not stated), -1.21.
`C[C@@H](C1=C(CCN(C)C)Cc2ccccc21)c1ccccn1`: the “cell shape (Z-score)” value was 1.35.
In the case of `CCN(CC)CC#CCOC(=O)C(O)(c1ccccc1)C1CCCCC1` (configuration not stated) it was 1.73.
As for `CC1(CO)CC(=O)CC2(C)C3=C(CCC12)C(=O)OC3` (configuration not stated), the “cell shape (Z-score)” value came to 0.579 ± 2.8.
In the case of `CC(C)Oc1ccc2c(=O)c3cc(C(=O)O)ccc3oc2c1` it was 0.453; in that of `COc1cc2ccc(=O)oc2cc1OCC(O)C(C)(C)O` (configuration not stated), -1.07 ± 0.15.
The value for `c1ccc2c(c1)CCCC2C1=NCCN1` (configuration not stated) was 3.66; that for `CC1CCN(CCCC(=O)c2ccc(F)cc2)CC1` was -0.124; that for `O=[N+]([O-])c1ccccc1S(=O)(=O)NCC1CCC(CNCC2CCc3ccccc3C2)CC1` (configuration not stated) was 0.873.
The value for `CSC(=O)OCC1=C[C@H](O)[C@@H]2C(C(=O)O)=CO[C@@H](OC3OC(CO)C(O)C(O)C3O)[C@H]12` (some centres not stated) was -0.375.
As for `COc1cc(C)c(C(=O)O[C@H]2[C@@H](OC(C)=O)[C@H](n3ccc(=O)[nH]c3=O)O[C@@H]2CO)c(OC)c1`, the “cell shape (Z-score)” value came to 1.91 ± 0.92.
In the case of `CC1=CC[C@@]2(C)CC[C@@](O)(C(C)C)[C@@H]2[C@@H](O)C1` it was -3.74; in that of `NS(=O)(=O)c1cc2c(cc1Cl)NC(C(Cl)Cl)NS2(=O)=O` (configuration not stated), -1.42.
Consider `CCN(CC)CCOC(=O)C(Cc1cccc2ccccc12)CC1CCCO1` (configuration not stated), for which the “cell shape (Z-score)” value worked out at 2.72.
The value for `COC(=O)[C@H]1[C@H]2C[C@@H]3c4[nH]c5cc(OC)ccc5c4CCN3C[C@H]2C[C@@H](OC(=O)c2cc(OC)c(OC)c(OC)c2)[C@@H]1OC` was -4.11; that for `CC(=O)Nc1ccc(S(=O)(=O)Nc2onc(C)c2C)cc1` was 2.8; that for `COc1cc(Nc2c(C#N)cnc3cc(OCCCN4CCN(C)CC4)c(OC)cc23)c(Cl)cc1Cl` was 26.7.
In the case of `CC(C)N(CCC(=O)c1ccc2ccccc2c1)Cc1ccccc1` it was 2.02.
The value for `COc1c2ccoc2nc2c(OC)c(OCC(O)C(C)(C)O)ccc12` (configuration not stated) was 2.45; that for `O=C(/C=C/CCc1ccccc1)CCc1ccccc1` was -0.278 ± 1.9.
As to `O=c1cc(-c2ccc(O)cc2)oc2ccc(O)cc12`, the “cell shape (Z-score)” value was determined as 4.02.
